Results deposited as PubChem BioAssay AID1159578 (Peter MacCallum Cancer Centre, 2015)

Aim: 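siRNA pools altering how lymphatic endothelial cells close a scratch wound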 (primary screen)
Cell system: human lymphatic endothelial cells
Reagents: siRNA pool against human genes, 40 nM
Timing: 48 h after transfection
Measured: 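High-content imaging of dye-stained cells in a scratch assay measures filled wound area and nuclei per well; duplicate means given as ratio to mock and robust z-score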
Scale: migration robust z-score: higher = faster migration into the scratch; nuclei per well: higher = more cells in the well
Hit rule: 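Migration changed when robust z exceeds 2 or falls below -2 and mean nuclei number is at least 3300; otherwise not called changed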
Calls: active = migration changed; inactive = no migration change, or too few cells
Shown is a random part of about 18,000 reagents tested. About 1,030 of them (5.7%) count as active. 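Inactive calls also include pools with fewer than 3300 nuclei, whose migration was not assessed.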 The raw values are shown without normalisation. Unmarked entries are inactive. Not all columns of the deposit are shown. Reagent sequences are not shown.

With knock-down of PPP1R9A (protein phosphatase 1 regulatory subunit 9A), the record shows migration robust z-score 0.23; nuclei per well, duplicate mean 5738. After knock-down of FLT1 (fms related receptor tyrosine kinase 1), the record shows migration robust z-score -0.36; nuclei per well, duplicate mean 5382. Silencing of PIERCE1 (piercer of microtubule wall 1) resulted in: migration robust z-score 0.73; nuclei per well, duplicate mean 5620. Against DNA2 (DNA replication helicase/nuclease 2) the deposit lists migration robust z-score -1.14; nuclei per well, duplicate mean 5058. Depletion of TAGLN2 (transgelin 2) gave: migration robust z-score 0.84; nuclei per well, duplicate mean 5340. For C9orf43 (chromosome 9 open reading frame 43), the values are migration robust z-score 0.99; nuclei per well, duplicate mean 7277.

With knock-down of TICAM2 (TIR domain containing adaptor molecule 2), the screen gave migration robust z-score 0.39; nuclei per well, duplicate mean 6242. ABHD14A (abhydrolase domain containing 14A) gave migration robust z-score 0.31; nuclei per well, duplicate mean 7166. Depletion of CDH17 (cadherin 17) resulted in: migration robust z-score 0.5; nuclei per well, duplicate mean 5738.

2 entries already listed, arranged by “nuclei per well, duplicate mean”, descending:
C9orf43 (chromosome 9 open reading frame 43) → migration robust z-score = 0.99; nuclei per well, duplicate mean = 7277
TAGLN2 (transgelin 2) → migration robust z-score = 0.84; nuclei per well, duplicate mean = 5340

More records follow:
For COQ10A (coenzyme Q10A), the values are migration robust z-score -1.45; nuclei per well, duplicate mean 6140. After knock-down of LRRIQ4 (leucine rich repeats and IQ motif containing 4) the results were migration robust z-score 1.21; nuclei per well, duplicate mean 6276. For ITGA1 (integrin subunit alpha 1), the values are migration robust z-score -1.29; nuclei per well, duplicate mean 5691. Against SSB (small RNA binding exonuclease protection factor La) the deposit lists migration robust z-score -0.56; nuclei per well, duplicate mean 5542. Silencing of NUBPL (NUBP iron-sulfur cluster assembly factor, mitochondrial) came out at: migration robust z-score 0.36; nuclei per well, duplicate mean 5294.
